The experiment deals with factor VIIa/tissue factor complex (Homo sapiens, UniProt P08709). The experiment can be described thus: inhibition of the amidolytic activity of factor VIIa/tissue factor complex (chromogenic peptide substrate). The conditions noted are these: 26 nM tissue factor, 9 nM soluble factor VIIa, 8 mM calcium chloride, substrate Chromozym-tPA, pH 7.5, room temperature. Here is the method: The measurements were carried out on microtitre plates at room temperature. To this end, 100 μl of a solution of 26 nM of tissue factor, 9 nM of soluble factor VIIa and 8 mM of calcium chloride were added to 25 μl of a solution of the inhibitor in a buffer [pH 7.5, 100 mM, comprising 0.14M NaCl, 0.1M N-(2-hydroxyethyl)piperazine-N′-(2-ethanesulphonic acid) (HEPES), 0.5 mg/l of fatty-acid-free BSA (bovine serum albumin) and 0.05% NaN3] in each well of the plate. After an incubation time of 15 minutes the reaction was started by the addition of 50 μl of chromogenic substrate Chromozym-tPA (3.5 mM, MeSO2-D-Phe-Gly-Arg-paranitroanilide) and the hydrolysis of the substrate was followed spectrophotometrically on a kinetic microtitre plate reader over 10 minutes. Using the plot of the inhibition curves, the Ki values were determined according to the method described in Biochem. J. 55, 1953, 170–171. The results will be evident from the following Table (Ki in μM/l): […]

Chains of the proteins cited; added tags and fusions are not shown. Residues count along the entry.
UniProt P08709, 213-466 limits assumed: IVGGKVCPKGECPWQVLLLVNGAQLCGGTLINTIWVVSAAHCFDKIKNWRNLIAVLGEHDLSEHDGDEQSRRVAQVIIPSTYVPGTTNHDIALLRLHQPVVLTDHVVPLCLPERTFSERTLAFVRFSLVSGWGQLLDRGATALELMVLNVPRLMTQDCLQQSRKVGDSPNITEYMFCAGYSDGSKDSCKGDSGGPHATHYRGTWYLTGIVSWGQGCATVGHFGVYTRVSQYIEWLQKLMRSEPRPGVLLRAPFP
UniProt P08709, 61-212 partner limits assumed: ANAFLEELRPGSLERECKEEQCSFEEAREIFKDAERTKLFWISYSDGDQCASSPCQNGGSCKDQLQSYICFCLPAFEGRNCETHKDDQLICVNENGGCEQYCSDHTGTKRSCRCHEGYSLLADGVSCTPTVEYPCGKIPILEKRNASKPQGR
UniProt P13726, 33-295 partner limits assumed: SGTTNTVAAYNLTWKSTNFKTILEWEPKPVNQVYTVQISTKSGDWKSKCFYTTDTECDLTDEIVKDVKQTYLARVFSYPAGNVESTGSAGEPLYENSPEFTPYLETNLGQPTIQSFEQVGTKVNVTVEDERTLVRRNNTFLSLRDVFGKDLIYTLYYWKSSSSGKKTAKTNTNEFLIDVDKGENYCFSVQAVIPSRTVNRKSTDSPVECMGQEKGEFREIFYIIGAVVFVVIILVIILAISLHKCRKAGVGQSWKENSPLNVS

pKi: −log10 of the molar value. The structures given here were assigned with low confidence; some may be wrong.

Data on one compound can be found in US7071212B2, “N-(4-carbamimidoyl-phenyl)-glycine derivatives” (Hoffmann-La Roche Inc., priority 1998, dated 2006).

For the compound `COc1cc(OCCO)c(C(Nc2ccc(C(=N)N)cc2)C(=O)O)cc1OC` (stereo not shown), the pKi was 6.94.
